Patent US20260070991A1
No constants are given. Whether binding was seen depends on the method and setting. Some binding calls cover weakened binding; strength is not graded here.

Amino acid sequences for entries named in this document (tags omitted). Residues count along the entry.
UniProt P08069, residues 31-1367: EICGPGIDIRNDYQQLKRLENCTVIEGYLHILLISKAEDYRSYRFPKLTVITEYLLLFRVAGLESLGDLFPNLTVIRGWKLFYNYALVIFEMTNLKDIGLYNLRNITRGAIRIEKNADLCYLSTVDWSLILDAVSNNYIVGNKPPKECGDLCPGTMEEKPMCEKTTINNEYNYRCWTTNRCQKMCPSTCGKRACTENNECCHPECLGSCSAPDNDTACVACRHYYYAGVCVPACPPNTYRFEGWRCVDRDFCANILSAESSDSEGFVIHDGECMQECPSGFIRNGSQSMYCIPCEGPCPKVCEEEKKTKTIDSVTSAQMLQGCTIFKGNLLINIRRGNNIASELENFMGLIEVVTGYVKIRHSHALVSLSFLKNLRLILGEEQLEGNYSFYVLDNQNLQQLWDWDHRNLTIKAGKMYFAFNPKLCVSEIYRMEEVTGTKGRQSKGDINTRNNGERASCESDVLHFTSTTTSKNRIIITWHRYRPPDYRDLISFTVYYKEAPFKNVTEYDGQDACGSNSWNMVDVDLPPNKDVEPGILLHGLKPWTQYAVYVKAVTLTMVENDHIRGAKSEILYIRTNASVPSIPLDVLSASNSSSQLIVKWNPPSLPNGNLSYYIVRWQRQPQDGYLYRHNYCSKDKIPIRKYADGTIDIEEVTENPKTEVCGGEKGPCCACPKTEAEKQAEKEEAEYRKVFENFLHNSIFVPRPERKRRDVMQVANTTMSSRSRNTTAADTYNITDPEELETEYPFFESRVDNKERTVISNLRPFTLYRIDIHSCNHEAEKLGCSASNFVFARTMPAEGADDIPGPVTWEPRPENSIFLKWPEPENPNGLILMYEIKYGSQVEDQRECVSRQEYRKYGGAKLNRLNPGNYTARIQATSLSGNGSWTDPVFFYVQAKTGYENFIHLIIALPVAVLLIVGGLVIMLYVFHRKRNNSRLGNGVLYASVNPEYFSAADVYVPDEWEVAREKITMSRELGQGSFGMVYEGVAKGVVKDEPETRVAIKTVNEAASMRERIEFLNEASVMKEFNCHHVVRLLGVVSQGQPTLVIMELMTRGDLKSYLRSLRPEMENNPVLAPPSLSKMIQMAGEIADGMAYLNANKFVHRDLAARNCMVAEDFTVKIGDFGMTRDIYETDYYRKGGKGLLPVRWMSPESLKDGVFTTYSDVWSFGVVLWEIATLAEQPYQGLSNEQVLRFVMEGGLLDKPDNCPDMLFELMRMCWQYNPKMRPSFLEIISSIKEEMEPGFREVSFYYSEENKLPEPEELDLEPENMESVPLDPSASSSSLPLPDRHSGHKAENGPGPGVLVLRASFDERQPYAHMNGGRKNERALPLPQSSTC

Target: insulin-like growth factor 1 receptor (IGF-1R) on human peripheral blood mononuclear cells (human) (UniProt P08069)
Assay: receptor occupancy by flow cytometry on PBMCs of healthy participants after IV or SC dosing (Phase I SAD study)

binding: binds
B1: lonigutamab (antibody, V domains shown)
VH: QVQLVQSGAEVKKPGASVKVSCKASGYTFTSYYIHWVRQAPGQGLEWMGWIWPGDGSTKYAQKFQGRVTMTRDTSTSTVYMELSSLRSEDTAVYFCASPMITPNYAMDYWGQGTLVTVSS
VL: DIQMTQSPSSLSASVGDRVTITCRASQDISKYLNWYQQKPGKAPKLLIYYTSRLQSGVPSRFSGRGSGTDYSLTISSLQPEDFATYFCQQGSTLPYTFGGGTKVEIK
